According to PMC10115800, “Two assembly modes for SIN3 histone deacetylase complexes” (Cell Discovery, 2023):
These are yes or no findings as the source states them, for the method shown. In cells and extracts the contact can be indirect. A yes stands for co-enrichment or nearness to the bait. Other partners may have been found. For some of these results: A no says only that the protein was not detected with the bait. Sequences can lack the tags named with a protein.

T1: Pst2 with C-terminal 3× Flag-tag (S. pombe, UniProt O13919 1-1075)
T1 construct: Pst2, Sin3 homolog of S. pombe, organising subunit of the SIN3S complex; all five domains (PAH1/2/3, HID, HCR) are resolved; also called Pst2-Flag; Sin3 isoform Pst2; source: endogenous locus tagged, S. pombe; purified (ANTI-FLAG M2 resin, glycerol gradient); not shown: 3× Flag, C-terminal, kept
T1 sequence (looked up): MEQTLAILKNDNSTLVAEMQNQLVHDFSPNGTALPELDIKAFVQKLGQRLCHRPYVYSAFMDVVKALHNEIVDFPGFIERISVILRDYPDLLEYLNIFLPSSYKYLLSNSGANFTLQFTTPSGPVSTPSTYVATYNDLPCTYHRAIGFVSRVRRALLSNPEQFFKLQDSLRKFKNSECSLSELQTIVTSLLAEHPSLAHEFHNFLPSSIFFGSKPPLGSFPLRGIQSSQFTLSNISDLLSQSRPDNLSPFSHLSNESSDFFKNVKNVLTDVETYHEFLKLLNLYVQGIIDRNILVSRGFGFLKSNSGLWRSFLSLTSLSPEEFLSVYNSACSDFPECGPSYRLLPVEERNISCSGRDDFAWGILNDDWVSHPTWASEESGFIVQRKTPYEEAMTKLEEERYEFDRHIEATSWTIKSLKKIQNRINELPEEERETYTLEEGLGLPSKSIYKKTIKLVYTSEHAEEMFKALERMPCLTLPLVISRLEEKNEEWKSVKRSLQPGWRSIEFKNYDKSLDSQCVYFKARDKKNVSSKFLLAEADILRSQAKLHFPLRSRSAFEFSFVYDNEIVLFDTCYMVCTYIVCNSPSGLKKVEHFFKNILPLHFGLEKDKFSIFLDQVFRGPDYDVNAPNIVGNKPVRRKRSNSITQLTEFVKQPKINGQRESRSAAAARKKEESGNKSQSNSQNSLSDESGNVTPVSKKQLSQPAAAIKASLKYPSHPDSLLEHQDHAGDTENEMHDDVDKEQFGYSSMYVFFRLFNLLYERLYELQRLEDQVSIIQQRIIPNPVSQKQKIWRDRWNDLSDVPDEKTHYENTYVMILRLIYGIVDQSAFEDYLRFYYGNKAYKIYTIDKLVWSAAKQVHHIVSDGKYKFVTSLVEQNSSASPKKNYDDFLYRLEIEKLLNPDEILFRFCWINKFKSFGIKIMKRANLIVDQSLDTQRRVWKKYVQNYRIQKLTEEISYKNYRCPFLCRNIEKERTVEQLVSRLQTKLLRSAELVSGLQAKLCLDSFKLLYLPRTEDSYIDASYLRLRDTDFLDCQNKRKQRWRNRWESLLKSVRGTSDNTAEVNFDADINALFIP

T2: Pst3 with C-terminal 3× Flag-tag (S. pombe, UniProt O74755 1-1154)
T2 construct: Pst3, Sin3 homolog of S. pombe, subunit of the SIN3L complex; PAH3, HID and HCR are resolved in the model; Endogenous protein; also called Pst3-Flag; Sin3 isoform Pst3; source: endogenous locus tagged, S. pombe; purified (ANTI-FLAG M2 resin, glycerol gradient); not shown: 3× Flag, C-terminal, kept
T2 sequence (looked up): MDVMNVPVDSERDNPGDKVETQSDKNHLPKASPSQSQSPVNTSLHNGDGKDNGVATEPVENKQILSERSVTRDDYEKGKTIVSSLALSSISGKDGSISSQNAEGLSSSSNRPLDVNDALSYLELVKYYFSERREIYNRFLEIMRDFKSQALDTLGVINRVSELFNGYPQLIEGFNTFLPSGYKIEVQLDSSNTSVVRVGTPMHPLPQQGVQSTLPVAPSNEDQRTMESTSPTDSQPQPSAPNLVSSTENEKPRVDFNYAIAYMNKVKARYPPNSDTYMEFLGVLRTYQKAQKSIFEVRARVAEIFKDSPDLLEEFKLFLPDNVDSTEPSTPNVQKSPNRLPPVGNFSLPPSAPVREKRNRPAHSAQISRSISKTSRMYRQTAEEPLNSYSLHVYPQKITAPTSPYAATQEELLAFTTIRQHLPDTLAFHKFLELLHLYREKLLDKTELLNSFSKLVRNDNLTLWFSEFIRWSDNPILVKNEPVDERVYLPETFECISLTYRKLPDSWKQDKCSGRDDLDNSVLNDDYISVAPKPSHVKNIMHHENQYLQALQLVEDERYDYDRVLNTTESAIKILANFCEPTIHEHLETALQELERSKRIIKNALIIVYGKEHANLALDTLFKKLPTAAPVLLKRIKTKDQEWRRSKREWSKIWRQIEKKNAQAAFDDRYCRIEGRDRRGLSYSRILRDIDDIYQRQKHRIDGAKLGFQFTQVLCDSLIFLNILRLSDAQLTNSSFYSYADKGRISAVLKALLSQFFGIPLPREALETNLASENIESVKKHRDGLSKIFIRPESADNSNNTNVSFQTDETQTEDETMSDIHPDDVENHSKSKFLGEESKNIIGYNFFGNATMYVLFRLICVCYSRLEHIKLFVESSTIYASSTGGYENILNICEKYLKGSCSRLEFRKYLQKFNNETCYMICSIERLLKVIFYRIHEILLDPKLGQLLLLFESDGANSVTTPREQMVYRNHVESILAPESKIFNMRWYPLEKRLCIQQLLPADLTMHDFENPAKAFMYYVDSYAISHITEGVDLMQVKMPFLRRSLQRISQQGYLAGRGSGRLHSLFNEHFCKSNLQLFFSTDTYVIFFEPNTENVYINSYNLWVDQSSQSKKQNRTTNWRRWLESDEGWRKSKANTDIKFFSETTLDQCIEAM

B1: start control protein Cdc10 (protein, UniProt P01129 1-767)
chain: MASANFIRQFELGNDSFSYQKRPEDEPSQPLSNRNINKLNDSSTLKDSSSRIFINSQVLRDGRPVELYAVECSGMKYMELSCGDNVALRRCPDSYFNISQILRLAGTSSSENAKELDDIIESGDYENVDSKHPQIDGVWVPYDRAISIAKRYGVYEILQPLISFNLDLFPKFSKQQQIESSSISKNLNTSSFNTRSPLRNHNFSNPSKSSKNGVHTINNMQSSPSPSSSFLLPLTQIDSQNVKRSNNYLSTSPPILEQRLKRHRIDVSDEDLHPSSQLNDNEASSLFPDTPRLNHSLSFVSLVSSLPPLDQNIMQDYHTSKDILTSIFLDVNFADSSALEAKLSDSLDLDVPIDELGHAALHWAAAVAKMPLLQALIHKGANPLRGNLTGETALMRSVLVTNHLNQNSFGDLLDLLYASLPCTDRAGRTVVHHICLTAGIKGRGSASRYYLETLLNWAKKHASGNNGYMLKDFINYLNHQDKNGDTALNIAARIGNKNIVEVLMQAGASAYIPNRAGLSVANFGIFVENALKQPEDSKQTKVSLMSENLSSKEKTAVPPRQKSRDIIASVTDVISSLDKDFQDEMAAKQSMIDSAYTQLRESTKKLSDLREQLHVSETQRTLFLELRQRCKNLMTSIEEQKSELSNLYESFDPNGIHDSLSLDADAPFTVNENNNKNLSIAELKFQVAAYERNEARLNELANKLWQRNSNIKSKCRRVVSLCTGVDESRVDSLLESLLQAVESDGQQGEVDMGRVAGFLRVVKEHQA
B2: cell division cycle-related protein Res1 (protein, UniProt P33520 1-637)
chain: MYNDQIHKITYSGVEVFEYTINGFPLMKRCHDNWLNATQILKIAELDKPRRTRILEKFAQKGLHEKIQGGCGKYQGTWVPSERAVELAHEYNVFDLIQPLIEYSGSAFMPMSTFTPQSNRKPTEAYRRNSPVKKSFSRPSHSLLYPYTSSNNMTSTSRMSGIHDALSLQSDFTRSPDMPSDSFTGSLHDIKASPFSSNNYAQSLLDYFLLPNTTQPPDFVYDRPSDWDVNAGIDEDGHTALHWAAAMGNLEMMHALLQAGANVVAVNYLQQTSLMRCVMFTMNYDLQTFEVVSELLQSAICMNDSFGQTVFHHIALLASSKSKMEAARYYMDILLQNLTATQSVDVAAQIINLQDDHGDTALLICARNGAKKCARLLLSFYASSSIPNNQGQYPTDFLSSKDMSFPENDDSPLNSKIEDNLIDNLKYPQSLDDHLSSKKPISYFSNKLTHQTLPNVFTQLSELSKCHEASLAEKQLTYNLAMEALEQTVRETETCQRLWNERTNNDENYLVNQREDLIHQCKKFLHTLKTARYYLETVQLHQLKKYVTYFSQIWSTDELADISETKNLVGHDTKTNRSSLSSKHEVDLFTAENEAAREKLVEQLCSLQAQRKQKINEILNLLSMGMYNTINTDQSGS
B3: cell division cycle-related protein Res2 (protein, UniProt P41412 1-657)
chain: MAPRSSAVHVAVYSGVEVYECFIKGVSVMRRRRDSWLNATQILKVADFDKPQRTRVLERQVQIGAHEKVQGGYGKYQGTWVPFQRGVDLATKYKVDGIMSPILSLDIDEGKAIAPKKKQTKQKKPSVRGRRGRKPSSLSSSTLHSVNEKQPNSSISPTIESSMNKVNLPGAEEQVSATPLPASPNALLSPNDNTIKPVEELGMLEAPLDKYEESLLDFFLHPEEGRIPSFLYSPPPDFQVNSVIDDDGHTSLHWACSMGHIEMIKLLLRANADIGVCNRLSQTPLMRSVIFTNNYDCQTFGQVLELLQSTIYAVDTNGQSIFHHIVQSTSTPSKVAAAKYYLDCILEKLISIQPFENVVRLVNLQDSNGDTSLLIAARNGAMDCVNSLLSYNANPSIPNRQRRTASEYLLEADKKPHSLLQSNSNASHSAFSFSGISPAIISPSCSSHAFVKAIPSISSKFSQLAEEYESQLREKEEDLIRANRLKQDTLNEISRTYQELTFLQKNNPTYSQSMENLIREAQETYQQLSKRLLIWLEARQIFDLERSLKPHTSLSISFPSDFLKKEDGLSLNNDFKKPACNNVTNSDEYEQLINKLTSLQASRKKDTLYIRKLYEELGIDDTVNSYRRLIAMSCGINPEDLSLEILDAVEEALTREK
B4: pre-mRNA-processing factor Prp39 (protein, UniProt O74970 1-612)
chain: MDYGDIYIAEETEWDKYNRQINKNPDDFDAWEGLVRASEHLEGGVGRNSSKQAINTLRSVYDRFLGKYPLLFGYWKKYADFEFFVAGAEASEHIYERGIAGIPHSVDLWTNYCAFKMETNGDANEVRELFMQGANMVGLDFLSHPFWDKYLEFEERQERPDNVFQLLERLIHIPLHQYARYFERFVQVSQSQPIQQLLPPDVLASIRADVTREPAKVVSAGSKQITVERGELEIEREMRARIYNIHLQIFQKVQLETAKRWTFESEIKRPYFHVKELDEAQLVNWRKYLDFEEVEGDFQRICHLYERCLITCALYDEFWFRYARWMSAQPDHLNDVSIIYERASCIFASISRPGIRVQYALFEESQGNIASAKAIYQSILTQLPGNLEAVLGWVGLERRNAPNYDLTNAHAVLRSIINEGKCNTGITEVLITEDIKLVWKIEGDIELARNMFLQNAPALLDCRHFWISFLRFELEQPLNSKNYTEHHARVSNVMEMIRNKTRLPPRTIMDLTKLYMEYLCHQSNDPSVLQEYLLIDRDVFGPFSVRESHWKKLDEGQDLKQVSTRLLSTNGHPGISVNEAKIKSGESPYEKYYRLQGVVETVTSGVAANGSS
B5: Atf1 (protein, UniProt P52890 1-566)
chain: MSPSPVNTSTEPASVAAVSNGNATASSTQVPENNQSDSFAPPSNNSQQNQQSSTIAPNGGAGSVANANPADQSDGVTPSFVGSLKLDYEPNPFEHSFGSTASVGQGNPSLNRNPSLSNIPSGVPPAFARTLLPPVSSIASPDILSGAPGIASPLGYPAWSAFTRGTMHNPLSPAIYDATLRPDYLNNPSDASAAARFSSGTGFTPGVNEPFRSLLTPTGAGFPAPSPGTANLLGFHTFDSQFPDQYRFTPRDGKPPVVNGTNGDQSDYFGANAAVHGLCLLSQVPDQQQKLQQPISSENDQAASTTANNLLKQTQQQTFPDSIRPSFTQNTNPQAVTGTMNPQASRTQQQPMYFMGSQQFNGMPSVYGDTVNPADPSLTLRQTTDFSGQNAENGSTNLPQKTSNSDMPTANSMPVKLENGTDYSTSQEPSSNANNQSSPTSSINGKASSESANGTSYSKGSSRRNSKNETDEEKRKSFLERNRQAALKCRQRKKQWLSNLQAKVEFYGNENEILSAQVSALREEIVSLKTLLIAHKDCPVAKSNSAAVATSVIGSGDLAQRINLGY

Assays:
[1] = molecular target: T1, Pst2 with C-terminal 3× Flag-tag; experiment: affinity purification with mass spectrometry; Pst2-3×Flag as bait from S. pombe lysate (350 mM NaCl) on ANTI-FLAG M2 resin, FLAG peptide elution, glycerol gradient; SDS-PAGE bands analysed by LC-MS/MS
[2] = molecular target: T2, Pst3 with C-terminal 3× Flag-tag; experiment: affinity purification with mass spectrometry; Pst3-3×Flag as bait from S. pombe lysate (350 mM NaCl) on ANTI-FLAG M2 resin, FLAG peptide elution, glycerol gradient; SDS-PAGE bands analysed by LC-MS/MS

| Binder | binding [1] | binding [2] |
| --- | --- | --- |
| B1 | no binding | binds |
| B2 | no binding | binds |
| B3 | no binding | binds |
| B4 | no binding | binds |
| B5 | no binding | binds |
